Taken from: PubChem BioAssay AID504774 (Drosophila RNAi Screening Center, 2011)

Aim: 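Genes required for cells to withstand methyl methanesulphonate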 (primary screen)
Cell system: Drosophila Kc167 cells
Reagent: long dsRNA against Drosophila genes, about 0.25 µg dsRNA per well
Timing: about 6 days: 3 days knock-down, then 3 days with or without MMS
Treatment: methyl methanesulphonate 0.004% (w/v) for 3 days after knock-down
Measurement: 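ATP-dependent luminescence as a measure of live cells in MMS-exposed wells, quantile normalised within each plate, with replicate values also given as a mean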
Direction: mean viability with MMS and viability with MMS: higher = more surviving cells after MMS
The screen tested about 23,000 reagents; below is an unselected part of those that have a named target and a result. 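Values are quantile-normalised luminescence on an arbitrary scale; higher means more cells surviving MMS.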 A plus sign joins genes that one reagent is predicted to hit.

| target gene | DRSC id | mean viability with MMS | viability with MMS, replicate 1 | viability with MMS, replicate 2 |
| --- | --- | --- | --- | --- |
| CG33627 | DRSC05343 | 3.73e6 | 4.09e6 | 4.24e6 |
| CG15083 | DRSC06514 | 3.51e6 | 4.14e6 | 3.83e6 |
| CR32011 + CR32010 + PlexB + 1 more | DRSC21664 | 3.54e6 | 4.05e6 | 4.00e6 |
| Glyp (Glycogen phosphorylase) | DRSC00752 | 1.58e6 | 3.74e6 | 3.74e6 |
| CG32301 | DRSC08613 | 3.55e6 | 4.06e6 | 3.98e6 |
| beat-IIa (beaten path IIa) | DRSC14813 | 3.76e6 | 4.05e6 | 4.47e6 |
| beat-IIa (beaten path IIa) | DRSC14814 | 3.56e6 | 3.96e6 | 4.13e6 |
| Rac1 | DRSC08688 | 3.65e6 | 4.18e6 | 4.04e6 |
| CG7824 | DRSC16321 | 3.50e6 | 3.90e6 | 4.03e6 |
| eIF3c (eukaryotic translation initiation factor 3 subunit c) | DRSC06905 | 3.04e6 | 3.58e6 | 3.57e6 |
| lectin-24A | DRSC00604 | 3.48e6 | 3.92e6 | 3.99e6 |
| PPP4R2r (Protein phosphatase 4 regulatory subunit 2-related protein) | DRSC18695 | 3.66e6 | 4.11e6 | 4.14e6 |
| PPP4R2r (Protein phosphatase 4 regulatory subunit 2-related protein) | DRSC21503 | 3.67e6 | 4.16e6 | 4.13e6 |
| CG31368 | DRSC14949 | 3.45e6 | 3.97e6 | 3.88e6 |
| CG31368 | DRSC14951 | 3.56e6 | 4.11e6 | 3.98e6 |
| CG7601 | DRSC14131 | 3.61e6 | 4.04e6 | 4.14e6 |
| CG14811 | DRSC17962 | 3.68e6 | 4.16e6 | 4.18e6 |
| CG4793 | DRSC01966 | 3.54e6 | 4.04e6 | 3.99e6 |
| ZnT86D (Zinc transporter 86D) | DRSC16091 | 3.64e6 | 4.12e6 | 4.06e6 |
| CG14439 | DRSC17931 | 3.67e6 | 4.25e6 | 4.07e6 |
| Adss (Adenylosuccinate synthetase) | DRSC14162 | 3.32e6 | 3.76e6 | 3.79e6 |
| CG6271 | DRSC16006 | 3.59e6 | 4.10e6 | 4.04e6 |
| clumsy | DRSC03111 | 3.46e6 | 3.93e6 | 3.89e6 |
| CG5928 | DRSC18391 | 3.58e6 | 4.11e6 | 4.04e6 |
| CG14419 | DRSC17916 | 3.49e6 | 4.02e6 | 3.91e6 |
| AIMP3 (aaRS-interacting multifunctional protein 3) | DRSC04500 | 3.65e6 | 4.05e6 | 4.23e6 |
| CG13871 | DRSC06430 | 3.43e6 | 3.88e6 | 3.86e6 |
| CG1907 | DRSC15399 | 3.74e6 | 4.22e6 | 4.22e6 |
| SPARC (Secreted protein, acidic, cysteine-rich) | DRSC14123 | 3.52e6 | 4.00e6 | 3.95e6 |
| CG34452 | DRSC09387 | 3.54e6 | 4.10e6 | 3.92e6 |
| CG11816 | DRSC19428 | 3.19e6 | 3.72e6 | 3.77e6 |
| CG14423 | DRSC17920 | 3.41e6 | 3.92e6 | 3.82e6 |
| so (sine oculis) | DRSC07693 | 3.04e6 | 2.10e6 | 3.59e6 |
| so (sine oculis) | DRSC23096 | 3.69e6 | 4.04e6 | 4.33e6 |
| Zip71B (Zinc/iron regulated transporter-related protein 71B) | DRSC09686 | 3.52e6 | 4.05e6 | 3.94e6 |
| l(2)k09913 (lethal (2) k09913) | DRSC04699 | 3.67e6 | 4.04e6 | 4.21e6 |
| Alp6 (Alkaline phosphatase 6) | DRSC06710 | 3.56e6 | 4.08e6 | 4.00e6 |
| dec (defective chorion) | DRSC18759 | 3.33e6 | 3.63e6 | 3.92e6 |
| dec (defective chorion) | DRSC21477 | 3.58e6 | 4.11e6 | 4.01e6 |
| SPH93 (Serine protease homolog 93) | DRSC02978 | 3.61e6 | 4.16e6 | 4.02e6 |
| CG31337 | DRSC12981 | 3.72e6 | 4.16e6 | 4.14e6 |
| cac (cacophony) | DRSC19743 | 3.49e6 | 3.94e6 | 3.96e6 |
| cac (cacophony) | DRSC20354 | 3.51e6 | 4.02e6 | 3.86e6 |
| CG17600 | DRSC20638 | 3.64e6 | 4.02e6 | 4.18e6 |
| CG17600 | DRSC20640 | 3.53e6 | 3.97e6 | 4.04e6 |
| CG17600 | DRSC22753 | 3.57e6 | 4.06e6 | 4.01e6 |
| REPTOR-BP (REPTOR-binding partner) | DRSC02683 | 3.39e6 | 4.02e6 | 3.62e6 |
| Icmt (Isoprenylcysteine carboxyl methyltransferase) | DRSC09834 | 3.63e6 | 4.06e6 | 4.12e6 |
| cv-2 (crossveinless 2) | DRSC03861 | 3.64e6 | 4.09e6 | 4.14e6 |
| cv-2 (crossveinless 2) | DRSC04261 | 3.60e6 | 4.18e6 | 3.99e6 |
| CG14185 | DRSC10184 | 3.67e6 | 4.17e6 | 4.11e6 |

Not a retest: 12 of the entries above.
| target gene | DRSC id | mean viability with MMS | viability with MMS, replicate 1 | viability with MMS, replicate 2 |
| --- | --- | --- | --- | --- |
| CG15083 | DRSC06514 | 3.51e6 | 4.14e6 | 3.83e6 |
| CR32011 + CR32010 + PlexB + 1 more | DRSC21664 | 3.54e6 | 4.05e6 | 4.00e6 |
| Glyp (Glycogen phosphorylase) | DRSC00752 | 1.58e6 | 3.74e6 | 3.74e6 |
| CG32301 | DRSC08613 | 3.55e6 | 4.06e6 | 3.98e6 |
| beat-IIa (beaten path IIa) | DRSC14813 | 3.76e6 | 4.05e6 | 4.47e6 |
| beat-IIa (beaten path IIa) | DRSC14814 | 3.56e6 | 3.96e6 | 4.13e6 |
| Rac1 | DRSC08688 | 3.65e6 | 4.18e6 | 4.04e6 |
| CG7824 | DRSC16321 | 3.50e6 | 3.90e6 | 4.03e6 |
| eIF3c (eukaryotic translation initiation factor 3 subunit c) | DRSC06905 | 3.04e6 | 3.58e6 | 3.57e6 |
| lectin-24A | DRSC00604 | 3.48e6 | 3.92e6 | 3.99e6 |
| PPP4R2r (Protein phosphatase 4 regulatory subunit 2-related protein) | DRSC18695 | 3.66e6 | 4.11e6 | 4.14e6 |
| PPP4R2r (Protein phosphatase 4 regulatory subunit 2-related protein) | DRSC21503 | 3.67e6 | 4.16e6 | 4.13e6 |

Continued:
| target gene | DRSC id | mean viability with MMS | viability with MMS, replicate 1 | viability with MMS, replicate 2 |
| --- | --- | --- | --- | --- |
| wek (weckle) | DRSC03561 | 3.50e6 | 3.93e6 | 3.99e6 |
| Spn42Dc (Serpin 42Dc) | DRSC05010 | 3.34e6 | 3.88e6 | 3.71e6 |
| TBC1d7 (TBC1 domain family member 7) | DRSC15985 | 3.72e6 | 4.25e6 | 4.15e6 |
| scw (screw) | DRSC01711 | 3.42e6 | 3.87e6 | 3.85e6 |
| scw (screw) | DRSC21252 | 3.55e6 | 4.04e6 | 4.01e6 |
| CG13901 | DRSC08371 | 3.56e6 | 4.04e6 | 4.01e6 |
| CCT4 (Chaperonin containing TCP1 subunit 4) | DRSC02865 | 3.34e6 | 3.80e6 | 3.74e6 |
| Su(z)2 (Suppressor of zeste 2) | DRSC07558 | 2.34e6 | 2.93e6 | 2.93e6 |
| Su(z)2 (Suppressor of zeste 2) | DRSC22970 | 2.97e6 | 3.56e6 | 3.00e6 |
| CG34202 | DRSC05907 | 3.34e6 | 3.86e6 | 3.78e6 |
| CG17049 (retired record) | DRSC06650 | 3.53e6 | 4.02e6 | 4.06e6 |
| EMC10 (ER membrane protein complex subunit 10) | DRSC11850 | 3.51e6 | 4.07e6 | 3.88e6 |
| CG33143 | DRSC04151 | 3.88e6 | 4.27e6 | 4.34e6 |
| CG33143 | DRSC04454 | 3.46e6 | 3.79e6 | 4.02e6 |
| CG17528 | DRSC07761 | 3.58e6 | 4.10e6 | 4.01e6 |
| bab1 (bric a brac 1) | DRSC08379 | 3.67e6 | 3.49e6 | 3.51e6 |
| bab1 (bric a brac 1) | DRSC08709 | 3.64e6 | 3.99e6 | 4.21e6 |
| bab1 (bric a brac 1) | DRSC21882 | 3.67e6 | 4.10e6 | 4.15e6 |
| mkg-p + Tpt | DRSC10777 | 3.57e6 | 3.99e6 | 4.12e6 |
| hfw (halfway) | DRSC18506 | 3.43e6 | 3.92e6 | 3.87e6 |
| CG30183 | DRSC04450 | 3.51e6 | 3.90e6 | 4.06e6 |
| CG30183 | DRSC04472 | 3.47e6 | 3.85e6 | 4.00e6 |
| AstCC (Allatostatin double C) | DRSC02404 | 3.55e6 | 3.88e6 | 4.20e6 |
| CG14454 | DRSC11711 | 3.42e6 | 3.87e6 | 3.84e6 |
| GalT1 (beta1,3-galactosyltransferase 1) | DRSC22238 | 3.49e6 | 3.93e6 | 3.99e6 |
| CG8119 | DRSC20083 | 3.68e6 | 4.16e6 | 4.13e6 |
| CG13442 | DRSC06402 | 3.79e6 | 4.16e6 | 4.25e6 |
| CG32681 | DRSC17646 | 3.47e6 | 3.94e6 | 3.94e6 |
| CG3611 | DRSC04395 | 3.46e6 | 3.89e6 | 3.94e6 |
| CG14657 | DRSC12219 | 3.45e6 | 3.84e6 | 3.95e6 |
| CG14657 | DRSC12243 | 3.39e6 | 3.78e6 | 3.87e6 |
| Cpr62Bb (Cuticular protein 62Bb) | DRSC08404 | 3.63e6 | 4.12e6 | 4.06e6 |
| MED10 (Mediator complex subunit 10) | DRSC10474 | 3.27e6 | 3.70e6 | 3.67e6 |
| ppk13 (pickpocket 13) | DRSC02382 | 3.55e6 | 4.02e6 | 4.03e6 |
| CG30466 | DRSC05556 | 3.55e6 | 3.95e6 | 4.08e6 |
| CAH2 (Carbonic anhydrase 2) | DRSC10746 | 3.59e6 | 4.00e6 | 4.12e6 |
